In patent US12559784B2 (priority 2023, dated 2026):
Read-outs that look alike come from different tables or passages of the source. Some results were stated once for a whole list of compounds, not compound by compound. For at least one compound, name, drawing or mass did not settle the structure.

Experiments:
[1] = test system: alkaline phosphatase; assay: Alkaline phosphatase experiment, third week: with and without discs; assay type: biochemical
From the text: Our next study focused on an in vitro method of detecting the potential of dermal corrosives to inhibit nonspecific phosphatases that may be released from the skin. We decided to test pure […] instead of relying on endogenous skin phosphatase. Alkaline phosphatase (Sigma Aldrich, St. Louis, MO) was purchased and suspended to make the reaction reagent (10,000 units). […] We note that the ratio used was 0.1 g/ml or 10% chemical—which is far in excess of any pharmaceutical applications. We further note that pharmaceutical enzyme inhibition tests, studies an use involve highly specific active site binding and these assays are conducted at ratios of micrograms-femtograms per ml. These studies are done at these ranges because these are the realistic concentrations for drug applications and therapeutics. […] So when a 50 Kg human consumes the tables, the tissues will be exposed at a 5 mg/50 kg=0.1 mg/kg=0.0000001 g/ml.
Next two quantitative methods were evaluated: 1) using the discs parts from our OptiSafe™ test method and 2) directly into the 24-well plate.
Preparation • 1. Alkaline phosphatase reaction reagent • a. Take 1 vial of AP, add 1 mL of PBS, mix by pipette/re-pipette 10 times • b. To a 50 mL conical tube, add 1 mL of the AP solution prepared above and 40 mL of PBS • 2. Prepare two 24-well plates (1 with discs, 1 without discs) • 3. […] Aliquot 200 μL PNPP and PBS Procedure • 1. Plate 1 (No Discs) • a. Add 1.25 mL from the prepared PBS-AP conical tube to each well (11 wells) • b. Add 100 μL of the test material to the well, mix with the same pipette tip, dispose and repeat for the rest of the test materials • c. Wrap the plate in saran wrap and place into the container • 2. Plate 2 (Discs) • a. Configure the 11 discs in the plate so the plate cover is stable • b. Add 1.25 mL from the prepared PBS-AP conical tube to each well (11 wells) • c. Add 100 μL of the test material to the center of the disc and repeat for the rest of the test materials • d. Put the plate cover on and place into the container • 3. […] Incubate for 1 hour Reading Results • 1. Measure at OD405

[2] = test system: alkaline phosphatase; assay type: biochemical
Description: For the new study, the alkaline phosphatase was suspended in phosphate buffered saline (PBS) to make the reaction reagent. Then, 100 μL of the test chemical is added directly into the corresponding wells on a 24-well plate with 1.25 mL of alkaline phosphatase reaction reagent already aliquoted.
Preparation • 1. Alkaline phosphatase reaction reagent • a. Take 1 vial of AP, add 1 mL of PBS, mix by pipette/re-pipette 10 times • b. To a 50 mL conical tube, add 1 mL of the AP solution prepared above and 40 mL of PBS • 2. Prepare two 24-well plates • 3. […] Aliquot with 200 μL PNPP and PBS • 4. Prepare glass vials Repeat Procedure from 1-3-23 • 1. 24-well plate • a. Add 1.25 mL from the prepared PBS-AP conical tube to each well (11 wells) • b. Add 100 μL of the test material to the well, mix with the same pipette tip, dispose and repeat for the rest of the test materials • c. Wrap the plate in saran wrap and place into the container • 2. […] To the prepared 96-well plate with 200 μL PNPP or PBS, add 20 μL from the 24-well plate • 4. Incubate for 1 hour • 5. […] 24-well plate • a. Add 1.25 mL from the prepared PBS-AP conical tube to each well (11 wells) • b. Add 100 μL of the test material to the well, mix with the same pipette tip, dispose and repeat for the rest of the test materials • c. After 10 minutes, mix each well • 2. To the prepared 96-well plate with 200 μL PNPP or PBS, add 20 μL from the 24-well plate • 3. […] Aliquot 200 μL from the 24-well plate to glass vials filled with 2 mL of PNPP

[3] = 405 nm, 18 hours 37° C. exposure, PNPP 1 hour
[4] = 405 nm, 100 μL chemical, 1.25 mL reaction reagent (10,000 units), 18 hours 37° C., PNPP 1 hour
[5] = 405 nm, 100 μL chemical, 1.25 mL reaction reagent, 18 hours 37° C., PNPP 1 hour

SMILES | raw optical density reading (PNPP), repeat without discs (FIG. 4) [2, 3] | raw optical density reading (PNPP), with discs (FIG. 3A) [1, 4] | raw optical density reading (PNPP), without discs (FIG. 3B) [1, 5] | further results
OCCOCCOCCO [Triethylene glycol] |  |  |  | raw optical density reading (PNPP), with discs (FIG. 3A) [1]: above 3.000; raw optical density reading (PNPP), without discs (FIG. 3B) [1]: above 3.000
CCCCCCC=O [Heptanal] |  |  |  | raw optical density reading (PNPP), with discs (FIG. 3A) [1]: above 3.000; raw optical density reading (PNPP), without discs (FIG. 3B) [1]: above 3.000
ClCCCCBr [1-Bromo-4-chlorobutane] | above 3.000 |  |  | 
CC(C)O [Isopropanol] |  |  |  | raw optical density reading (PNPP), repeat without discs (FIG. 4) [2]: above 3.000
CCCSSCCC [di-n-Propyl disulfide] | above 3.000 | above 3.000 | above 3.000 | 
BrCCc1ccccc1 [(2-Bromoethyl)benzene] |  | above 3.000 | above 3.000 | 
CC(C=O)Cc1ccc(C(C)C)cc1 (stereo not drawn) [Cyclamen aldehyde] | above 3.000 | above 3.000 | above 3.000 | 
CCCCCCCCCCCCCC(=O)OC(C)C [Isopropyl Myristate] |  |  |  | raw optical density reading (PNPP), repeat without discs (FIG. 4) [2]: above 3.000
CC(C)(O)CCc1ccccc1 [2-Methyl-4-phenyl-2-butanol] |  | above 3.000 | above 3.000 | 
C=CCCC=C [1,5-Hexadiene] | above 3.000 |  |  | 
